From the supplement of paper PMC11732987, “Enantioselective OTUD7B fragment discovery through chemoproteomics screening and high-throughput optimisation” (Communications Chemistry, 2025)
The other results are listed elsewhere or left out. The data scatter; read single values as rough.

Amino acid sequences for entries named in this document (tags omitted). A change or cut given only in a name is not applied to a line headed by its entry. Residues count along the entry.
UniProt Q86VI3: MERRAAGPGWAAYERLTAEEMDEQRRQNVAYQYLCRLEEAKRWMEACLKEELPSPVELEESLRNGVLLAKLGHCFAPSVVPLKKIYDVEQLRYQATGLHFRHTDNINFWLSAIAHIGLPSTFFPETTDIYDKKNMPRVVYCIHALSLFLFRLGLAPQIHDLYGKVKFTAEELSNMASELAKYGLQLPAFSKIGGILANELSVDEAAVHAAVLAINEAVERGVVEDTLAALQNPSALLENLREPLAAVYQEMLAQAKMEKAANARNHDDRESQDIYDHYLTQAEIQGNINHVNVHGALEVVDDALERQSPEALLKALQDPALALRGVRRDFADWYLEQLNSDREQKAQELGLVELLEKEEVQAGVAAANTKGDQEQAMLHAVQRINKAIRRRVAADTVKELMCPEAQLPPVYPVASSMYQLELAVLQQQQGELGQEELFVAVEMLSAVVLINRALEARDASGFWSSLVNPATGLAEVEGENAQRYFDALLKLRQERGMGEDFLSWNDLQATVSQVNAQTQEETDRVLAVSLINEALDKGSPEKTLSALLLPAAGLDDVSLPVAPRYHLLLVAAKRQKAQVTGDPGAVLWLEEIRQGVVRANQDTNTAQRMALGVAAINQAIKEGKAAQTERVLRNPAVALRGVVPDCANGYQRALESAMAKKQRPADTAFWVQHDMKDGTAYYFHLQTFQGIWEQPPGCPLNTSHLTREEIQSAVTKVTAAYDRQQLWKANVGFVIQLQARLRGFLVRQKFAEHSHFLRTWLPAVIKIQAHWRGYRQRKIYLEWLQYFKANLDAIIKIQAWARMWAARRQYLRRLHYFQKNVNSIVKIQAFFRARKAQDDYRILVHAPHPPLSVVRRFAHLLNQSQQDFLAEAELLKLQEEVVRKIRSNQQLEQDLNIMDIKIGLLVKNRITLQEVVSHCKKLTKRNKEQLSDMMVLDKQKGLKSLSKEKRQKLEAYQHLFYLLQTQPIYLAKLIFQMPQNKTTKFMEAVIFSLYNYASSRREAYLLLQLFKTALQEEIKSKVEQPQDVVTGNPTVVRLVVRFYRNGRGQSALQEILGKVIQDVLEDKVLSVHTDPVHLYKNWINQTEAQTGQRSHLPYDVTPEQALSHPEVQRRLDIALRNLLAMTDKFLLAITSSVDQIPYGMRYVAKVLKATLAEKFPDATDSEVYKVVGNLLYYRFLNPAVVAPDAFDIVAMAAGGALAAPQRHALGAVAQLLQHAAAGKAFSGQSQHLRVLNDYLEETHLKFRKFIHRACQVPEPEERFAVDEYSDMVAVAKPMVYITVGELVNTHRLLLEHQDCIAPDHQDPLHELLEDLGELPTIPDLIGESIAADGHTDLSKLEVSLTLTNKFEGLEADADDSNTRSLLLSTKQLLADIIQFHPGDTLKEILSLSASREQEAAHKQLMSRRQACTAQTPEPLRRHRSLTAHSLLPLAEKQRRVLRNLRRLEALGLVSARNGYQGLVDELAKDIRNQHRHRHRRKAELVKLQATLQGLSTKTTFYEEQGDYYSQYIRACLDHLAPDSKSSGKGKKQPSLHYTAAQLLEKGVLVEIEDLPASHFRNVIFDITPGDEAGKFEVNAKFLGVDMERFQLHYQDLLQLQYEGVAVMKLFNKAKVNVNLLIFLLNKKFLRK
UniProt Q9H7X7: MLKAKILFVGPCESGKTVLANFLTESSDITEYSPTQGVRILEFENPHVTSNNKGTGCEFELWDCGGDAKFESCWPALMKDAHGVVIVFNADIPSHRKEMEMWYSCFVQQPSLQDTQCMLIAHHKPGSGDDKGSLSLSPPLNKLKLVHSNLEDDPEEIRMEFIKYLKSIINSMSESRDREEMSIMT
UniProt Q8N201, whole entry, looked up: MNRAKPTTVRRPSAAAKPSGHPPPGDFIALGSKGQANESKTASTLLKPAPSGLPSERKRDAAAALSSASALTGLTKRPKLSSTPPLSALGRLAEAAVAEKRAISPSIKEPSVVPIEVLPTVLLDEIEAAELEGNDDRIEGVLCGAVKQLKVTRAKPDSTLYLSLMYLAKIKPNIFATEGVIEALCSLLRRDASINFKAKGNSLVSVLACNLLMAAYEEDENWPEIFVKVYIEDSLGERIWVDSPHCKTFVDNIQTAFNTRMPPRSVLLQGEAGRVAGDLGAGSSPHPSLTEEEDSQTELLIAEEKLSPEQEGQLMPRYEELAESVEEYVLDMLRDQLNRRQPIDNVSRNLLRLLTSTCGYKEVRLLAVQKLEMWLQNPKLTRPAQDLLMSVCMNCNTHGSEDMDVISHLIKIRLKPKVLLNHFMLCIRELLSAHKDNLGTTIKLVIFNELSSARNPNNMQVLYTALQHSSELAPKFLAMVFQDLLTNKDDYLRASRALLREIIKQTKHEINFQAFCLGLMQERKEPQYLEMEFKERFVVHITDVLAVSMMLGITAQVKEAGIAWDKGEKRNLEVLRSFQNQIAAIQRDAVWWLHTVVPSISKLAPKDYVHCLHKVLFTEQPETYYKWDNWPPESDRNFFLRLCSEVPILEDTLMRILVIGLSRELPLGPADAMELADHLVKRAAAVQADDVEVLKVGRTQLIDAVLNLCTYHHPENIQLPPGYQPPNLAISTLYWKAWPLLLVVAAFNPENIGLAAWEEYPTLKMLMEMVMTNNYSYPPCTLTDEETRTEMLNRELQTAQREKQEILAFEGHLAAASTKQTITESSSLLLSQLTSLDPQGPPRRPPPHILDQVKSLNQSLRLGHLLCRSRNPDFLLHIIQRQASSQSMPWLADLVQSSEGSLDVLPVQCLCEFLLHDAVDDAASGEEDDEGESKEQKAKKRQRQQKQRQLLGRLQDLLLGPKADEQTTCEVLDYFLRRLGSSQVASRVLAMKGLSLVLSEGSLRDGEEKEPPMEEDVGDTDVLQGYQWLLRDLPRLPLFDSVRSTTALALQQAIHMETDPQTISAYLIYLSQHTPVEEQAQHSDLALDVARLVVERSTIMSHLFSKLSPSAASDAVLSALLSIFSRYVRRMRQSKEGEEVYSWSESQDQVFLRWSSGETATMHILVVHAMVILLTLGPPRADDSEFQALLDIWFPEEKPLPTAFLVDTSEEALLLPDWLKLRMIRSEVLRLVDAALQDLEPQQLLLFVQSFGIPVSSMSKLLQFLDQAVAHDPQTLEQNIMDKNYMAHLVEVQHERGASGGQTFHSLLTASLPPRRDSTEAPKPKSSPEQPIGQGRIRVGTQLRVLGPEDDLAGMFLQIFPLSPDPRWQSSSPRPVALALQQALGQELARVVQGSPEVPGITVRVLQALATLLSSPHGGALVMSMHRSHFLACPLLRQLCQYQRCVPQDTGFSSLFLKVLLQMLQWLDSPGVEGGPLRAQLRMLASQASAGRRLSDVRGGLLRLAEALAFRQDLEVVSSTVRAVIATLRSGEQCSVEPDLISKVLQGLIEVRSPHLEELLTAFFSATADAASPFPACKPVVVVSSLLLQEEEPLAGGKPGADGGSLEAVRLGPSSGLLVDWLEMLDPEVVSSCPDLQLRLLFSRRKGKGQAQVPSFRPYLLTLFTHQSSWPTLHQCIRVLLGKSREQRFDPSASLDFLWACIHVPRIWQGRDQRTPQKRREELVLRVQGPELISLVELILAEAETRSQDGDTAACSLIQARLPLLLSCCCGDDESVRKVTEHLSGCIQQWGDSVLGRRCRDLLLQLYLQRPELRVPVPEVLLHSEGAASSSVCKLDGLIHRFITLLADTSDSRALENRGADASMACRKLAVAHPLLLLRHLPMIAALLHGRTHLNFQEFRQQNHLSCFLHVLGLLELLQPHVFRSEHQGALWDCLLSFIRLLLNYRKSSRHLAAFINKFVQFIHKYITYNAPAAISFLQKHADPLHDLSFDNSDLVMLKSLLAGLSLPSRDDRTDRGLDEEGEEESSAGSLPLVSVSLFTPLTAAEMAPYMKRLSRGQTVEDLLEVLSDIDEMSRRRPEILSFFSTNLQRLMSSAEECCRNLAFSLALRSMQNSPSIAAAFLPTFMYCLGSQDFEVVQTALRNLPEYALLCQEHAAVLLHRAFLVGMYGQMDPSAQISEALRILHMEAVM
UniProt Q9H0H0, whole entry, looked up: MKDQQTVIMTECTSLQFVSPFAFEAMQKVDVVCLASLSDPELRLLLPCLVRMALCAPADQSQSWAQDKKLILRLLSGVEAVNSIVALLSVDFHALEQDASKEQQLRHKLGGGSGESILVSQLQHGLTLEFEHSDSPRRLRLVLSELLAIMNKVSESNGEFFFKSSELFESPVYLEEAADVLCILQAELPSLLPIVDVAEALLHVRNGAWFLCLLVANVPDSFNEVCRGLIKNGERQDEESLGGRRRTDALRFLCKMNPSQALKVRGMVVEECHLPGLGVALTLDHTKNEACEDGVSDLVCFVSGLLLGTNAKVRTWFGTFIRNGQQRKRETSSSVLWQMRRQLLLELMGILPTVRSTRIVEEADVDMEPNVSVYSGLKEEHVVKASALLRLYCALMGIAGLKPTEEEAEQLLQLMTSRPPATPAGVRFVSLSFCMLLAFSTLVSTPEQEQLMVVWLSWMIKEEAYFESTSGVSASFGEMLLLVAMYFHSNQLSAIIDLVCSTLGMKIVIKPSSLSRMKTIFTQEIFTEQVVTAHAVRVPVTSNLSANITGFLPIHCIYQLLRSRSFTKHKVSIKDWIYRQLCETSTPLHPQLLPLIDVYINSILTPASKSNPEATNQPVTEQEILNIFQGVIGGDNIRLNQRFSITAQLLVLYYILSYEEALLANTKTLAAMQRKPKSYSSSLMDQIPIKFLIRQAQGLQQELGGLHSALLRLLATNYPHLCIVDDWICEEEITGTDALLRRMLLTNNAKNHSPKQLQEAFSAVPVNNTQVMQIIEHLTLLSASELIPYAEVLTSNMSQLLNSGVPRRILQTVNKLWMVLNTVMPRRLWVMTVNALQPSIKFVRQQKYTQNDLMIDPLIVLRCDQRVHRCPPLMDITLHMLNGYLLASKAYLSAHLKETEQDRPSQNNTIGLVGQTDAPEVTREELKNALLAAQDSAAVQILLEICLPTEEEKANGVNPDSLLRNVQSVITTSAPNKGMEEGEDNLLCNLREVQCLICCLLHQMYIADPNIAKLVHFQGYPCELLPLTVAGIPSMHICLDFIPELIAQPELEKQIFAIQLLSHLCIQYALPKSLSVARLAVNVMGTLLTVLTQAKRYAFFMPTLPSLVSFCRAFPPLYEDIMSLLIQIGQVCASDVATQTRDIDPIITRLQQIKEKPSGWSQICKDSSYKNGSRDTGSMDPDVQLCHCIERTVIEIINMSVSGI
UniProt Q9Y6K9, whole entry, looked up: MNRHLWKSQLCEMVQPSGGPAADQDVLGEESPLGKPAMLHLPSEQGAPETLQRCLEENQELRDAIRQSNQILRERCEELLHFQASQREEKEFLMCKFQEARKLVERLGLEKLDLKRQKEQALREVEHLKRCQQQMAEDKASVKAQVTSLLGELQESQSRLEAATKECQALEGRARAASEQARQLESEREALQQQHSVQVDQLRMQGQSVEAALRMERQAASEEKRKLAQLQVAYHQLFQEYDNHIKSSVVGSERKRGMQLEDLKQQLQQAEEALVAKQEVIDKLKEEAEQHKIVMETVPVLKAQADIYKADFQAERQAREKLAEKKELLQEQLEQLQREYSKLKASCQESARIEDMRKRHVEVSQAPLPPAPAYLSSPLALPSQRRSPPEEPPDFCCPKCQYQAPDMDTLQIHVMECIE
UniProt Q9Y2F5, 1599-1623: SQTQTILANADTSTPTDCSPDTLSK
UniProt Q9UL03, whole entry, looked up: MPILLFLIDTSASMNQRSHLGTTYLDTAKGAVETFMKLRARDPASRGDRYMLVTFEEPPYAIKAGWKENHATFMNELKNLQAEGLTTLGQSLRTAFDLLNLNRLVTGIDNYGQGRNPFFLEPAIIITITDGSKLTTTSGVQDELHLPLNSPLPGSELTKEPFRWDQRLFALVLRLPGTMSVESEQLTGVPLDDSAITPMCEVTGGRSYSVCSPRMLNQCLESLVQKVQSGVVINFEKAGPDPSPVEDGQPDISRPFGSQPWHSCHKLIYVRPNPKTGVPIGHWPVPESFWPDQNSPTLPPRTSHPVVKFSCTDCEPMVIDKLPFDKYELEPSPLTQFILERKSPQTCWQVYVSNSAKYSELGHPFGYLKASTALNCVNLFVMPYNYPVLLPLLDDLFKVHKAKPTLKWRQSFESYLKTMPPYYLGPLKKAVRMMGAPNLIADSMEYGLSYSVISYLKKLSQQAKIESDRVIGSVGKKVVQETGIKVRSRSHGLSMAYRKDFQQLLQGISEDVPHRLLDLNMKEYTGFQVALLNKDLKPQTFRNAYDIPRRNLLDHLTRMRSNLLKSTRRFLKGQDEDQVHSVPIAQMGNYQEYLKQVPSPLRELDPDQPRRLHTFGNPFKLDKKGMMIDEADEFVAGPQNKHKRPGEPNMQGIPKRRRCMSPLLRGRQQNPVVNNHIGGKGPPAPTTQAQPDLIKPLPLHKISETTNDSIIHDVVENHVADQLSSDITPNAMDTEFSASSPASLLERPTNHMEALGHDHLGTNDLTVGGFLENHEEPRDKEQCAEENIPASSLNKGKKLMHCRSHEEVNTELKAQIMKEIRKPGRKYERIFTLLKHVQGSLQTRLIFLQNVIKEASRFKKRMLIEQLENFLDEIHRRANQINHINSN
UniProt Q6DN90, 196-224: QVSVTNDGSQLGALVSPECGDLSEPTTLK
UniProt Q9P2D0, 512-532: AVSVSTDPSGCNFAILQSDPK

How the values were obtained:
[1] = compound: ClCC(=O)N[C@@H]1CCCc2ccccc12; experiment: log2 mean competition ratio of IA-DTB cysteine labelling (DMSO/compound) (log2 ratio); higher = stronger cysteine engagement by compound; settings: treatment time: 4 h, cell line lysate: HEK293T
Description: (§1)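 IA-DTB competitive cysteine chemoproteomics in HEK293T RIPA lysate. Lysates were treated with compound 29 or 30 at 50 or 200 µM for 4 h, then IA-DTB (500 µM, 1 h), trypsin-digested, NeutrAvidin-enriched and analysed by diaPASEF. Competition ratio = intensity DMSO / intensity compound (n=4 treated, n=64 DMSO); binding: mean log2 CR ≥ 1 and p ≤ 0.05 plus QC filters. Target is the cysteine site.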

[2] = compound: ClCC(=O)N[C@H]1CCCc2ccccc12; experiment: as above; settings: treatment time: 4 h, cell line lysate: HEK293T
Description: as §1

Target	log2 mean competition ratio ([1]; 50 µM)	log2 mean competition ratio ([1]; 200 µM)	log2 mean competition ratio ([2]; 50 µM)	log2 mean competition ratio ([2]; 200 µM)
IFT81 C535 (UniProt Q8WYA0)	0.0448	0.00602	–	–
HSPD1 C447 (UniProt P10809)	-0.116	-0.148	–	–
HSP90AA1 C572 (UniProt P07900)	0.0578	0.24	–	–
IMPA2 C152 (UniProt O14732)	-0.168	-0.0418	–	–
HSPH1 C245	-0.0518	0.0511	–	–
IQGAP2 C1449 (UniProt Q13576)	-0.101	-0.242	–	–
IL6ST C419 (UniProt P40189)	-0.0611	-0.00782	–	–
IQGAP3 C919 (UniProt Q86VI3)	0.0988	0.261	–	–
HSF1 C103 (UniProt Q00613)	0.0863	0.88	–	–
IFT22 C12 (UniProt Q9H7X7)	0.178	0.121	–	–
IL17RA C185 (UniProt Q96F46)	-0.1	-0.0633	–	–
IQGAP1 C1534 (UniProt P46940)	-0.0958	-0.289	–	–
INF2 C172 (UniProt Q27J81)	0.168	-0.167	–	–
INTS1 C1440 (UniProt Q8N201)	0.0959	0.322	–	–
IFT172 C1298 (UniProt Q9UG01)	-0.184	-0.324	–	–
IREB2 C178 (UniProt P48200)	-0.0355	0.397	–	–
INTS1 C1433 (UniProt Q8N201)	0.544	1.38	–	–
IFI35 C107 (UniProt P80217)	0.2	0.0662	–	–
INTS2 C988 (UniProt Q9H0H0)	0.0566	0.571	–	–
HSPH1 C796	-0.173	-0.186	–	–
IKBKG C347 (UniProt Q9Y6K9)	-0.0412	0.0114	–	–
ICE1 C1616 (UniProt Q9Y2F5)	0.228	-0.389	–	–
HTATSF1 C471 (UniProt O43719)	-0.0278	0.385	–	–

Target	log2 mean competition ratio ([1]; 50 µM)	log2 mean competition ratio ([1]; 200 µM)	log2 mean competition ratio ([2]; 50 µM)	log2 mean competition ratio ([2]; 200 µM)
IDH2 C418 (UniProt P48735)	0.236	0.0248	–	–
INTS6 C659 (UniProt Q9UL03)	0.151	0.452	–	–
IPO7 C749 (UniProt O95373)	-0.213	0.115	–	–
IFT172 C1727 (UniProt Q9UG01)	0.0704	0.266	–	–
HSDL1 C328 (UniProt Q3SXM5)	0.151	-0.0867	–	–
IPO11 C894 (UniProt Q9UI26)	-0.251	-0.137	–	–
HUWE1 C790	-0.337	-0.0931	–	–
IARS2 C1005 (UniProt Q9NSE4)	-0.156	-0.154	–	–
HTT C823 (UniProt P42858)	-0.185	0.423	–	–
IQSEC1 C214 (UniProt Q6DN90)	-0.506	-0.17	–	–
HPS4 C183 (UniProt Q9NQG7)	-0.0183	0.223	–	–
ICE1 C228 (UniProt Q9Y2F5)	0.33	0.306	–	–
IBTK C522 (UniProt Q9P2D0)	-0.132	-0.147	–	–
HUWE1 C1832	-0.0766	0.257	–	–
IFFO1 C341	0.0219	0.209	–	–
IGFBPL1 C115	-0.0979	0.123	-0.147	–
HUWE1 C467	-0.00967	0.338	–	0.189
HPS5 C222 (UniProt Q9UPZ3)	-0.217	0.292	–	–
IGF2R C1217 (UniProt P11717)	0.165	-0.0224	–	–
IPO11 C262 (UniProt Q9UI26)	0.0405	0.289	–	–
HSPH1 C310	-0.311	0.269	–	–
INTU C692 (UniProt Q9ULD6)	0.0349	0.768	–	–
IGHMBP2 C897 (UniProt P38935)	-0.0897	0.103	–	0.00909

Record cards (already shown). Order of values: log2 mean competition ratio ([1]; 50 µM) | log2 mean competition ratio ([1]; 200 µM) | log2 mean competition ratio ([2]; 50 µM) | log2 mean competition ratio ([2]; 200 µM)
IPO7 C749 (UniProt O95373) is entered as -0.213 | 0.115 | – | –
IFT172 C1727 (UniProt Q9UG01) is entered as 0.0704 | 0.266 | – | –
IPO11 C894 (UniProt Q9UI26) is entered as -0.251 | -0.137 | – | –
IBTK C522 (UniProt Q9P2D0) is entered as -0.132 | -0.147 | – | –

Continuation:

Target	log2 mean competition ratio ([1]; 50 µM)	log2 mean competition ratio ([1]; 200 µM)	log2 mean competition ratio ([2]; 50 µM)	log2 mean competition ratio ([2]; 200 µM)
IQGAP2 C1183 (UniProt Q13576)	0.00251	-0.239	0.0516	-0.175
HSPA14 C335 (UniProt Q0VDF9)	0.0489	0.00944	–	–
ILKAP C312 (UniProt Q9H0C8)	0.181	-0.078	0.0489	-0.133
IL17RA C632 (UniProt Q96F46)	-0.37	-0.073	-0.119	-0.0886
INTS1 C1755 (UniProt Q8N201)	-0.206	0.0815	0.233	0.121
HSPA4L C540 (UniProt O95757)	0.243	-0.251	–	–
IFT81 C557 (UniProt Q8WYA0)	0.0823	0.0539	–	–
HTRA2 C71 (UniProt O43464)	0.0125	0.195	–	–
HSF1 C153 (UniProt Q00613)	-0.283	0.598	–	–
HYOU1 C352	-0.39	-0.185	–	–
IGF1R C488 (UniProt P08069)	-0.191	-0.0555	–	–
HSD17B4 C425 (UniProt P51659)	0.00849	-0.201	-0.438	-0.196
HTT C431 (UniProt P42858)	0.198	0.281	0.355	0.0937
IKBKG C167 (UniProt Q9Y6K9)	-0.209	-0.0143	–	–
IARS2 C883 (UniProt Q9NSE4)	0.0958	0.223	–	–
IMPDH1 C215 (UniProt P20839)	0.272	0.255	0.0667	0.169
IFRD2 C409 (UniProt Q12894)	0.111	-0.107	–	–
HSD17B8 C41 (UniProt Q92506)	-0.0484	0.0586	-0.00654	0.174
ILK C428 (UniProt Q13418)	-0.00288	0.111	-0.147	0.102
IDI1 C39 (UniProt Q13907)	-0.015	-0.0415	–	–
IGF2BP3 C194 (UniProt O00425)	-0.464	0.399	–	–
INTS9 C578 (UniProt Q9NV88)	-0.0456	0.334	–	–
HPS3 C52 (UniProt Q969F9)	0.0702	-0.219	–	–

Target	log2 mean competition ratio ([1]; 50 µM)	log2 mean competition ratio ([1]; 200 µM)	log2 mean competition ratio ([2]; 50 µM)	log2 mean competition ratio ([2]; 200 µM)
HSPA9 C66 (UniProt P38646)	0.147	0.206	–	–
IRF2BP1 C546 (UniProt Q8IU81)	-0.00301	-0.176	–	-0.216
IKBKB C524 (UniProt O14920)	-0.233	-0.207	–	–
IRAK1 C608 (UniProt P51617)	0.488	0.374	–	–
INTS6 C219 (UniProt Q9UL03)	-0.0427	0.00328	-0.417	0.0863
IPO7 C90 (UniProt O95373)	-0.387	0.301	-0.199	0.221
ING2 C124 (UniProt Q9H160)	-0.113	0.347	-0.143	-0.00368
INTS2 C48 (UniProt Q9H0H0)	0.215	0.0926	-0.163	0.156
HUWE1 C2721	-0.138	-0.2	-0.0746	-0.113
HUWE1 C1567	0.00799	-0.26	-0.386	-0.314
INTS2 C1164 (UniProt Q9H0H0)	0.233	0.184	0.251	0.276
HUS1 C44 (UniProt O60921)	0.477	0.367	0.36	0.549
HPCAL4 C187	-0.0536	-0.225	0.297	0.128
IFRD2 C147 (UniProt Q12894)	0.225	0.468	-0.344	0.19
IRF2BP1 C207 (UniProt Q8IU81)	0.378	0.0917	0.557	0.284
IQGAP3 C646 (UniProt Q86VI3)	0.418	-0.0521	0.14	-0.0673
INPP1 C10 (UniProt P49441)	-0.154	-0.295	0.36	-0.0812
IGF2BP3 C44 (UniProt O00425)	-0.00775	-0.161	0.00357	0.14
IQGAP3 C1254 (UniProt Q86VI3)	0.149	-0.208	0.244	-0.16
HPS6 C692 (UniProt Q86YV9)	-0.399	0.153	-0.502	0.255
HSPBAP1 C293 (UniProt Q96EW2)	0.0572	-0.0955	0.351	-0.27
IPO4 C870 (UniProt Q8TEX9)	-0.194	0.169	-0.0525	0.262
IARS1 C120	0.146	-0.223	-0.181	-0.257

Target	log2 mean competition ratio ([1]; 50 µM)	log2 mean competition ratio ([1]; 200 µM)	log2 mean competition ratio ([2]; 50 µM)	log2 mean competition ratio ([2]; 200 µM)
ICE1 C1254 (UniProt Q9Y2F5)	0.131	0.621	-0.0552	0.513
IFT140 C917 (UniProt Q96RY7)	-0.143	0.259	-0.264	-0.225
INTS6 C211 (UniProt Q9UL03)	-0.0255	0.0245	0.144	0.324
ILVBL C568 (UniProt A1L0T0)	0.175	-0.0197	0.446	-0.0347
IGF2R C1227 (UniProt P11717)	-0.328	-0.206	-0.302	-0.167
HSPD1 C237 (UniProt P10809)	-0.144	-0.162	-0.229	-0.0971
ICE1 C265 (UniProt Q9Y2F5)	-0.0921	0.071	-0.0105	-0.118
INPP4A C230 (UniProt Q96PE3)	-0.0889	-0.305	0.0714	-0.141
ILKAP C367 (UniProt Q9H0C8)	-0.164	0.0476	-0.267	-0.0902
IPO9 C90 (UniProt Q96P70)	-0.289	-0.0896	-0.287	-0.088
HTATSF1 C480 (UniProt O43719)	-0.108	0.00542	0.0615	0.0806
IARS2 C1002 (UniProt Q9NSE4)	-0.0345	-0.0286	-0.203	-9.14e-05
IQSEC1 C906 (UniProt Q6DN90)	0.167	0.257	-0.307	0.293
HUWE1 C29	-0.0544	0.241	-0.198	0.0902
IMMT C603	-0.035	-0.325	-0.683	-0.116
HSDL2 C166 (UniProt Q6YN16)	0.254	-0.246	-0.024	-0.349
IPO5 C348	-0.0544	0.64	-0.0733	0.82
INTS4 C156 (UniProt Q96HW7)	-0.113	0.27	-0.199	0.125
HPRT1 C206 (UniProt P00492)	-0.0461	-0.112	0.206	0.0444
IFNGR1 C122 (UniProt P15260)	-0.144	-0.0935	0.073	0.02
ICE1 C904 (UniProt Q9Y2F5)	-0.133	0.4	-0.515	0.192
IPO7 C736 (UniProt O95373)	0.149	0.172	0.347	0.0178
IKBKG C131 (UniProt Q9Y6K9)	0.282	-0.161	0.478	0.00631

3 entries from above, with bars between the fields:
Target | log2 mean competition ratio ([1]; 50 µM) | log2 mean competition ratio ([1]; 200 µM) | log2 mean competition ratio ([2]; 50 µM) | log2 mean competition ratio ([2]; 200 µM)
HTATSF1 C480 (UniProt O43719) | -0.108 | 0.00542 | 0.0615 | 0.0806
IARS2 C1002 (UniProt Q9NSE4) | -0.0345 | -0.0286 | -0.203 | -9.14e-05
IQSEC1 C906 (UniProt Q6DN90) | 0.167 | 0.257 | -0.307 | 0.293
